{"source": "PubChem BioAssay AID1508597 (Cure First, 2020)", "test": "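Survival screen with siRNA in ovarian cancer cells derived from patients, with or without rucaparib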 (primary screen)", "system": "human ovarian carcinoma lines grown from tumours: OCI-P5x (papillary serous) and OCI-C5x (clear cell)", "knock-down reagent": "siRNA pool against human genes, 1.25 pmol siRNA per well", "time to read-out": "72 h or 96 h, depending on the cell culture", "conditions": "rucaparib 20 µM (about IC30) or vehicle, present until read-out", "rucaparib or vehicle": "Vehicle", "cell line": "OCI-P5x (serous)", "detection": "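Luminescent ATP-based viability assay read 72 or 96 h after transfection, depending on culture, given as normalised percent viability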", "scale": "viability, normalised: higher = more viable cells remaining", "active means": "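a well counts as a hit if its normalised viability is under 80 percent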", "meaning of the calls": "active = viability under 80%; inactive = viability 80% or more", "note": "This is an unselected part of the about 2,100 reagents, in one setting of the screen. 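Calls flag viability under 80% in either arm, not effects specific to rucaparib; the reference for percent is not stated.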 Unmarked entries are inactive. Not given: the 100% reference."}
{"gene knocked down": "DHX15", "technical replicate": "1", "viability, normalised (%)": "59.2 (active)"}
{"gene knocked down": "DHX15", "technical replicate": "2", "viability, normalised (%)": "53.3 (active)"}
{"gene knocked down": "DHX15", "technical replicate": "3", "viability, normalised (%)": "60.8 (active)"}
{"gene knocked down": "RPS19BP1", "technical replicate": "1", "viability, normalised (%)": "71.3 (active)"}
{"gene knocked down": "RPS19BP1", "technical replicate": "2", "viability, normalised (%)": "60.3 (active)"}
{"gene knocked down": "RPS19BP1", "technical replicate": "3", "viability, normalised (%)": "65.1 (active)"}
{"gene knocked down": "ING1", "technical replicate": "1", "viability, normalised (%)": 84.6}
{"gene knocked down": "ING1", "technical replicate": "2", "viability, normalised (%)": 87.5}
{"gene knocked down": "ING1", "technical replicate": "3", "viability, normalised (%)": 80.8}
{"gene knocked down": "SMAD3", "technical replicate": "1", "viability, normalised (%)": "67.3 (active)"}
{"gene knocked down": "SMAD3", "technical replicate": "2", "viability, normalised (%)": "66.2 (active)"}
{"gene knocked down": "SMAD3", "technical replicate": "3", "viability, normalised (%)": "71.5 (active)"}

In a second layout: results already given.
| gene knocked down | technical replicate | viability, normalised (%) |
| --- | --- | --- |
| DHX15 | 1 | 59.2 (active) |
| DHX15 | 2 | 53.3 (active) |

Additional entries follow.
{"gene knocked down": "SOX1", "technical replicate": "1", "viability, normalised (%)": "45.1 (active)"}
{"gene knocked down": "SOX1", "technical replicate": "2", "viability, normalised (%)": "38 (active)"}
{"gene knocked down": "SOX1", "technical replicate": "3", "viability, normalised (%)": "63.4 (active)"}
{"gene knocked down": "CHKB", "technical replicate": "1", "viability, normalised (%)": "74.1 (active)"}
{"gene knocked down": "CHKB", "technical replicate": "2", "viability, normalised (%)": "60.8 (active)"}
{"gene knocked down": "CHKB", "technical replicate": "3", "viability, normalised (%)": "60.4 (active)"}
{"gene knocked down": "RPS6KA5", "technical replicate": "1", "viability, normalised (%)": "70.3 (active)"}
{"gene knocked down": "RPS6KA5", "technical replicate": "2", "viability, normalised (%)": "63.2 (active)"}
{"gene knocked down": "RPS6KA5", "technical replicate": "3", "viability, normalised (%)": "65 (active)"}
